This note sets out measurements from paper PMC11832904.

Chains of the proteins cited; added tags and fusions are not shown. Lines headed by an entry give the natural chain unless they say otherwise; changes in a name come on top. A line that says so, or that is headed by a name, gives the form on record, which may keep a tag or linker.
UniProt Q9H6L5: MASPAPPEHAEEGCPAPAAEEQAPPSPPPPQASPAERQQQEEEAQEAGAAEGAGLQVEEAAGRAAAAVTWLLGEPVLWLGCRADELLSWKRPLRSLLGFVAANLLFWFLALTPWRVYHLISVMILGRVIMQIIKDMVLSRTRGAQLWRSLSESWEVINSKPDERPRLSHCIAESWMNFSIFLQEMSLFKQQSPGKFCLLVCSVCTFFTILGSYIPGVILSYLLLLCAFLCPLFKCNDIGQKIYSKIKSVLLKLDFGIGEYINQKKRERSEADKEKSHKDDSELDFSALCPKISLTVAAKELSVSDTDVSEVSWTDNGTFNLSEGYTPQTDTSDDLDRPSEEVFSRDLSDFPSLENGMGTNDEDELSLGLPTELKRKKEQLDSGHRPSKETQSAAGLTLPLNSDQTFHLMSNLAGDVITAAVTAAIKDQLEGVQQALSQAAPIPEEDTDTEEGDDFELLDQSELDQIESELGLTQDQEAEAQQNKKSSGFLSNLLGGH
V1-FAM134B2/V2-FAM134B2 (Q9H6L5-2, form named): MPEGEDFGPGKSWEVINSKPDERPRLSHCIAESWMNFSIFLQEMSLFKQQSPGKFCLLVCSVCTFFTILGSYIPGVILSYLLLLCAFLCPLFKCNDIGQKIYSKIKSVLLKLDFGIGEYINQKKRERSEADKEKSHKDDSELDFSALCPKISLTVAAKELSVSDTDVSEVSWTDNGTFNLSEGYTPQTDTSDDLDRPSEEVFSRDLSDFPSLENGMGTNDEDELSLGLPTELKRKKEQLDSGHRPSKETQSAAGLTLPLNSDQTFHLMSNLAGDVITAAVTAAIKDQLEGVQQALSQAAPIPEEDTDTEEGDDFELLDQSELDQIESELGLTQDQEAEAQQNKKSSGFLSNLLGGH

For test [1], the target named is V1-FAM134B1/V2-FAM134B1 (human) (UniProt Q9H6L5). Description: split reporter + affinity purification with mass spectrometry; BiCAP: V1- and V2-tagged FAM134B isoforms co-expressed in C2C12 myotubes (8 h doxycycline); reconstituted Venus precipitated with GFP-Trap beads (1 h, 4 °C; 150 mM NaCl, 50 mM Tris-HCl pH 7.5, 1% NP-40); on-bead digestion, LC-MS/MS.
In test [2] the target is V1-FAM134B2/V2-FAM134B2 (human) (UniProt Q9H6L5). The test is described as above.
The target of test [3] is T1, RFP-Fam134b1 (not stated (human or mouse cDNA cloned)) (UniProt Q8VE91).
T1 sequence: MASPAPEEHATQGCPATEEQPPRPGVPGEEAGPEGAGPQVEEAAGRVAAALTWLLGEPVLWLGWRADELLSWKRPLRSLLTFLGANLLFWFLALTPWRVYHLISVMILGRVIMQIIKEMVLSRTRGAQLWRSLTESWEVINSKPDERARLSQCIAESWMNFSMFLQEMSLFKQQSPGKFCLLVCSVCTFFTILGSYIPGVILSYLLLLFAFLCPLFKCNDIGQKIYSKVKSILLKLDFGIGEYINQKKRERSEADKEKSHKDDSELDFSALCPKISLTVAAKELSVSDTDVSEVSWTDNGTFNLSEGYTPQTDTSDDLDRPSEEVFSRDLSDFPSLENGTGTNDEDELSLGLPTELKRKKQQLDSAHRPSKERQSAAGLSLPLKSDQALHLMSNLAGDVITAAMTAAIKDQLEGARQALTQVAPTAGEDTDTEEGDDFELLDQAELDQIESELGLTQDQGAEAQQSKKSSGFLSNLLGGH
Description: affinity purification with mass spectrometry; RFP-Fam134b1 or RFP-Fam134b2 precipitated with anti-RFP agarose (4 h, 4 °C) from lysates of differentiated C2C12 myotubes; IP-MS.

The target in test [4] is RFP-Fam134b2 (not stated (human or mouse cDNA cloned)). The description is as above.

Results are given in words; binding and its absence hold for the method and conditions named. In cells and extracts the contact can be indirect. Here binding means that the protein was enriched with, or labelled near, the bait; the list need not be complete. For some assays here: A no says only that the protein was not detected with the bait.

For the molecule “V1-FAM134B1/V2-FAM134B1 (from UniProt Q9H6L5 1-497)”, in test [1], the binding entry is recorded as “binds”.

On to “V1-FAM134B2/V2-FAM134B2 (from UniProt Q9H6L5-2 1-356)”, for which the binding result in test [1] and in test [2] was “binds” throughout. In the case of “endogenous Fam134b2 (mouse (endogenous in C2C12 myotubes))”, in test [3], the binding result is reported as “binds”.

B1: endogenous Fam134b1 (protein, UniProt Q8VE91 1-480)
chain: T1 sequence
As for B1, the binding result in test [4] is “no binding”.
